Some of the results follow. Further columns of the screen follow, without active or inactive calls. Compounds called inactive in the main read-out are mostly missing here.

The test in a line: qHTS Assay for Lipid Storage Modulators in Drosophila S3 Cells.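 Note: cells counted by Cell Tracker Red CMTPX staining in the red channel.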 To be noted: BODIPY lipid droplet fluorescence, 18-24 h, measured here: cell count max response, cells fed with added oleic acid. The procedure, abridged: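 Drosophila S3 cells got compounds at several concentrations plus oleic acid (400 uM solution). Laser-scanning cytometry with 488 nm excitation read lipid droplets at 500-530 nm and cells at 575-640 nm. Percent activity was relative to 20 uM Triacsin C.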
For `COc1cc(/C=C2/C(=O)NN(c3ccc(Cl)cc3)C2=O)cc(Br)c1O`, the cell number change is -22%.

Take `Cc1cc(N2C(=O)C(O)=C(C(=O)c3cc4ccccc4o3)C2c2cccc(Br)c2)no1` (configuration not stated): the cell number change came to 8.02%.
